No constants are given. Whether binding was seen depends on the method and setting.
Experiments:
[1] = molecular target: VEGF165 heparin-binding domain (HBD), wild type (human); assay: ELISA; as a1, but the coated HBD was heat-treated; both purified
[2] = molecular target: VEGF165 N-terminal domain (NTD) (human); assay: ELISA; HBD, NTD or HBD mutants coated on 96-well plates, blocked with BSA; soluble αvβ3 (1 μg/mL) in HEPES-Tyrode buffer + 1 mM MnCl2, 1 h room temperature; bound αvβ3 detected with anti-β3 mAb AV10; binding to HBD inhibited by mAb 7E3 and cation-dependent; both purified

Amino acid sequences for entries named in this document (tags omitted). A change or cut given only in a name is not applied to a line headed by its entry.
UniProt P06756: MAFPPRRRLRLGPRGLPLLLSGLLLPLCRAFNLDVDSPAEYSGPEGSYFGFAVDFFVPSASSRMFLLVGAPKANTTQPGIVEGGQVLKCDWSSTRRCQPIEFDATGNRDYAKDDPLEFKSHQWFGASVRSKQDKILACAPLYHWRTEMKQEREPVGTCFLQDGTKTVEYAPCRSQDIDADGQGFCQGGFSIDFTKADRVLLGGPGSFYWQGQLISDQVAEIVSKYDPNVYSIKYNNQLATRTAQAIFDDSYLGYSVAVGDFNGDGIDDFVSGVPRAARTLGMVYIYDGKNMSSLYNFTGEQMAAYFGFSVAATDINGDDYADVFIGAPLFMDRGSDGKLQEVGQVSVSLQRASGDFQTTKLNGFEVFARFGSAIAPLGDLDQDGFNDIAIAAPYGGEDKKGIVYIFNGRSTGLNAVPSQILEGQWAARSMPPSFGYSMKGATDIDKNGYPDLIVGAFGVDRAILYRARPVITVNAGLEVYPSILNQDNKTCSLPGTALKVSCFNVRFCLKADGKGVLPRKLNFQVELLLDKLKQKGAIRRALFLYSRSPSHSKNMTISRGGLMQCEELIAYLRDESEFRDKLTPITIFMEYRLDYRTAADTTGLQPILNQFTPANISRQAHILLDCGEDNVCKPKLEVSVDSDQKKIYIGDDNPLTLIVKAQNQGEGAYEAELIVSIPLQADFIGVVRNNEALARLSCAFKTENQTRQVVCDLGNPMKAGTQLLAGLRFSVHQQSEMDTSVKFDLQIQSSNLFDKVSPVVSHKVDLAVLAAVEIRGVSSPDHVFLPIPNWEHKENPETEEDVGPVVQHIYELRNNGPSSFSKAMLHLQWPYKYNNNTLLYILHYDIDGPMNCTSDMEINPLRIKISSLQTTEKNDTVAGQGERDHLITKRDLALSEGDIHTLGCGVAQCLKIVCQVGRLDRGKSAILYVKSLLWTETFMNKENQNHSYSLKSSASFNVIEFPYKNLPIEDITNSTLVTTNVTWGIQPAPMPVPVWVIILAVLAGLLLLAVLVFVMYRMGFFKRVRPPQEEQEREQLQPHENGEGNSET

Which binding [1] does the source give for “recombinant soluble integrin αvβ3 (from UniProt P06756 31-987; P05106 27-718) (complex)” here?
The binding was “no binding (condition: heat treatment of the HBD)”.

And the binding [2]?
Its binding is “no binding (tested: soluble αvβ3 1 μg/mL)”.

— publication PMC11128890
